Test results from the supplement of paper PMC10849652.
The list shows a part of the results.

Amino acid sequences for entries named in this document (tags omitted). A change or cut given only in a name is not applied to a line headed by its entry.
UniProt Q86SE9: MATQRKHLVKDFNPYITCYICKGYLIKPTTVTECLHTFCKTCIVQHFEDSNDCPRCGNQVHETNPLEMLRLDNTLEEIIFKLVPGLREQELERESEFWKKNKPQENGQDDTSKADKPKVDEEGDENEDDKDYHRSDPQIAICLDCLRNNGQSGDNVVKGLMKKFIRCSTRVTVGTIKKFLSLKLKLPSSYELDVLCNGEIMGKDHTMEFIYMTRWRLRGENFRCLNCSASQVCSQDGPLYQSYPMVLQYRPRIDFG
UniProt Q9BRX2, whole entry, looked up: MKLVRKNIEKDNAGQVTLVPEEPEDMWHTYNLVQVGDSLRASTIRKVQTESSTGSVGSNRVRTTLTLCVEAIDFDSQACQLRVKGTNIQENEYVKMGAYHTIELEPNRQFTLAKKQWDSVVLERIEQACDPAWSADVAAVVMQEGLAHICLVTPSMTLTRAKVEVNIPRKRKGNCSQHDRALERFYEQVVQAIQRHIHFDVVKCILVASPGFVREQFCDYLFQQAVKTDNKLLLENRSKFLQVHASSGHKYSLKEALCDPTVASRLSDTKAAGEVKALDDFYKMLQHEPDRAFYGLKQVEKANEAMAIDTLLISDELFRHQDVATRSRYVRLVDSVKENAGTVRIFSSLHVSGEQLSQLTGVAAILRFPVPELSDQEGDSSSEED
UniProt O00541, whole entry, looked up: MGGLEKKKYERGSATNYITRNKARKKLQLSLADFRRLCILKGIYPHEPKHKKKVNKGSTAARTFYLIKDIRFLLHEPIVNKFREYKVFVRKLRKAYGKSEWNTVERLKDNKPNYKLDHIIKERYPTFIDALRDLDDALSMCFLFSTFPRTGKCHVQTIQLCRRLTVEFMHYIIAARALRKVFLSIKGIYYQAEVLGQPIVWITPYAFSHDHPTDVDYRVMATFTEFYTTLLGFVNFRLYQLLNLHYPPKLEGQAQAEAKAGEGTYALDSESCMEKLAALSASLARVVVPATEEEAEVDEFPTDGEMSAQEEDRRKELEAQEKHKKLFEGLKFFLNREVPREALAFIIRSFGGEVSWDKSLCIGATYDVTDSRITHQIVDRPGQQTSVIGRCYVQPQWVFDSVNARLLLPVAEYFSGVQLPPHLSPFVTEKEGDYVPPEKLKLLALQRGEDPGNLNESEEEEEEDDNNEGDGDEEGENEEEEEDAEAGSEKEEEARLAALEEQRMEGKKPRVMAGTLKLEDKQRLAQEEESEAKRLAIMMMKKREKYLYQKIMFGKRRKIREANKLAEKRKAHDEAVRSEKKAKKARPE
UniProt Q9BUL8: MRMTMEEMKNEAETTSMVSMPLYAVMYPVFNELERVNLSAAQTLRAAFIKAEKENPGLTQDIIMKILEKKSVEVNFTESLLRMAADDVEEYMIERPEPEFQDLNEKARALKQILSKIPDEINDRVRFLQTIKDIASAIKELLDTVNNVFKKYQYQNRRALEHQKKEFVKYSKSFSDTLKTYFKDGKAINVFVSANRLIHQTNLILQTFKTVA
UniProt Q9H0N5: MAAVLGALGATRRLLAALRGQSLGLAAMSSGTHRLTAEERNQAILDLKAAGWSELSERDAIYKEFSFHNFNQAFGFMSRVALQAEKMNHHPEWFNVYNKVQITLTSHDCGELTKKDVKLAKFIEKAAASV
UniProt Q29RF7: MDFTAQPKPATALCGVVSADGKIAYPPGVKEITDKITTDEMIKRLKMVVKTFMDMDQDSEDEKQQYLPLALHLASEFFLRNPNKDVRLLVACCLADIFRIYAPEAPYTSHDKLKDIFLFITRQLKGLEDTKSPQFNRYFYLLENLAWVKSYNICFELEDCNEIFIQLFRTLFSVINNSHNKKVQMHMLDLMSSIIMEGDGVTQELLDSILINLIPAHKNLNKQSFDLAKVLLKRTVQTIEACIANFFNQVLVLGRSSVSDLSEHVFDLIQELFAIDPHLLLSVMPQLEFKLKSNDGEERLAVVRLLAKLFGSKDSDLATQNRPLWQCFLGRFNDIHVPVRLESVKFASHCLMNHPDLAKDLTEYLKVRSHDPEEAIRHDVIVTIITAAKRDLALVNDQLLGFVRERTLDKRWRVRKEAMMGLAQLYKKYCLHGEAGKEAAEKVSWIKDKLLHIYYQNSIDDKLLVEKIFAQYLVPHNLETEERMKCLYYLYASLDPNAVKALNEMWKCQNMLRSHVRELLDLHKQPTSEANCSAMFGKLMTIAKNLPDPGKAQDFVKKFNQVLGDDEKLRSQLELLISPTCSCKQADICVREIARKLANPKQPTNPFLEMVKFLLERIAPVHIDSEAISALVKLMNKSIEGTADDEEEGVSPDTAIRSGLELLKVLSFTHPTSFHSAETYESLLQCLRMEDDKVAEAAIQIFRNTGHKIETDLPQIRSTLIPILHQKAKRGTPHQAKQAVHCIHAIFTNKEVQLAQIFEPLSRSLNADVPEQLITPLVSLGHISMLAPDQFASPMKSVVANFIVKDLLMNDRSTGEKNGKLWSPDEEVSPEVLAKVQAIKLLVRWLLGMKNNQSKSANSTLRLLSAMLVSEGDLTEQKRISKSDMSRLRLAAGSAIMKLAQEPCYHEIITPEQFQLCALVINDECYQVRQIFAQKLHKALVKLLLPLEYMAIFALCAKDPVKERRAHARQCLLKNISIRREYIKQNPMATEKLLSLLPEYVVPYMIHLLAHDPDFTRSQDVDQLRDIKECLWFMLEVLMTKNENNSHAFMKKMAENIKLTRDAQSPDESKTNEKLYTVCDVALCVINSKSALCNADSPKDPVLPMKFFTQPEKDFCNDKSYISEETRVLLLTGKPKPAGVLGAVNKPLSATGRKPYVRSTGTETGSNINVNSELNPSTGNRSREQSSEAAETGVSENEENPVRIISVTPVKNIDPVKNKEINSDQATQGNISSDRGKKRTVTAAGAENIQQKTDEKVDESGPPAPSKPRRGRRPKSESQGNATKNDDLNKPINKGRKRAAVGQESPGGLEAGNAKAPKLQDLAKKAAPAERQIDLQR
UniProt Q8N0Y7: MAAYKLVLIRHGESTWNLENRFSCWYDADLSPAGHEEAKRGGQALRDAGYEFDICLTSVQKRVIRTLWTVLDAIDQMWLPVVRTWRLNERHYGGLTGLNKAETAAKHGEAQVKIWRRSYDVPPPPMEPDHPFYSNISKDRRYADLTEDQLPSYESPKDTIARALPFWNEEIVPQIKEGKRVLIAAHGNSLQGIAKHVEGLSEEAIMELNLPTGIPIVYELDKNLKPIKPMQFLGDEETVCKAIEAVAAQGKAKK
UniProt Q6ZW49, whole entry, looked up: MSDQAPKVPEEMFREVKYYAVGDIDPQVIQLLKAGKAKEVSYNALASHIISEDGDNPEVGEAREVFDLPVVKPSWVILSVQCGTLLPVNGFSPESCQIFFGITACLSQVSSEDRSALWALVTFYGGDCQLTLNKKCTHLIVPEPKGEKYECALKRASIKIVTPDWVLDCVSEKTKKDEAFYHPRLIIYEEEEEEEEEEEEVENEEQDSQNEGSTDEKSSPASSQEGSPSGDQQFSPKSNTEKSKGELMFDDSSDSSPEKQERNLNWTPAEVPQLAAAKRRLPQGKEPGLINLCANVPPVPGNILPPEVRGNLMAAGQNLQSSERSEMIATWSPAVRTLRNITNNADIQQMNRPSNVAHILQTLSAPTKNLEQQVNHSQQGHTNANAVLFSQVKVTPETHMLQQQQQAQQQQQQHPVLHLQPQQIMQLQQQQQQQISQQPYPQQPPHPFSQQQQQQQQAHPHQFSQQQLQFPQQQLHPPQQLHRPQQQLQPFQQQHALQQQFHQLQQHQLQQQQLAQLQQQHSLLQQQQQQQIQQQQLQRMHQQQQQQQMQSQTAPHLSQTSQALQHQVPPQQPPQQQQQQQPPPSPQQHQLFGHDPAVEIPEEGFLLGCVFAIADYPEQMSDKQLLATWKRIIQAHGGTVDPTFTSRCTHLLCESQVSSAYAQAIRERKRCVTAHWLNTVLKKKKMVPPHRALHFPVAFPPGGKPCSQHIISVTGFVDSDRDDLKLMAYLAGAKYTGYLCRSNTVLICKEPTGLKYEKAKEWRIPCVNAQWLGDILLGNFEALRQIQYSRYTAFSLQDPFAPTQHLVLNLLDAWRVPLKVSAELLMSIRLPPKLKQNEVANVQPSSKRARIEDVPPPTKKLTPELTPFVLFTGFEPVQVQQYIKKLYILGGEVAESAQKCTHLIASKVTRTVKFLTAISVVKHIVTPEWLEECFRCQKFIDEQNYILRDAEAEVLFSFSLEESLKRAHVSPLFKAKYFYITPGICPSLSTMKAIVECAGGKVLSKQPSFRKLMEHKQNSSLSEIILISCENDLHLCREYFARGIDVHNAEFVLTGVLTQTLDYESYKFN
UniProt P08559, whole entry, looked up: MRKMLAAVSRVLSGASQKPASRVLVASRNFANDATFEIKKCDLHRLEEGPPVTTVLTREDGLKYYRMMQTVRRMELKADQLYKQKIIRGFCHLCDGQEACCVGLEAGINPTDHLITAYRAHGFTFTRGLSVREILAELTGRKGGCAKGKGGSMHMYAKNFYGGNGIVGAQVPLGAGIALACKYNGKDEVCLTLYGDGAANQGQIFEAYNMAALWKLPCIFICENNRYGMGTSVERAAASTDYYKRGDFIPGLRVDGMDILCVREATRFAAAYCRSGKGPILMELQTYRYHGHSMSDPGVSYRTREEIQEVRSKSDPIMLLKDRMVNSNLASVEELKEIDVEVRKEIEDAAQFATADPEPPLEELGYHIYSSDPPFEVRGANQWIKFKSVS
UniProt Q6L8Q7: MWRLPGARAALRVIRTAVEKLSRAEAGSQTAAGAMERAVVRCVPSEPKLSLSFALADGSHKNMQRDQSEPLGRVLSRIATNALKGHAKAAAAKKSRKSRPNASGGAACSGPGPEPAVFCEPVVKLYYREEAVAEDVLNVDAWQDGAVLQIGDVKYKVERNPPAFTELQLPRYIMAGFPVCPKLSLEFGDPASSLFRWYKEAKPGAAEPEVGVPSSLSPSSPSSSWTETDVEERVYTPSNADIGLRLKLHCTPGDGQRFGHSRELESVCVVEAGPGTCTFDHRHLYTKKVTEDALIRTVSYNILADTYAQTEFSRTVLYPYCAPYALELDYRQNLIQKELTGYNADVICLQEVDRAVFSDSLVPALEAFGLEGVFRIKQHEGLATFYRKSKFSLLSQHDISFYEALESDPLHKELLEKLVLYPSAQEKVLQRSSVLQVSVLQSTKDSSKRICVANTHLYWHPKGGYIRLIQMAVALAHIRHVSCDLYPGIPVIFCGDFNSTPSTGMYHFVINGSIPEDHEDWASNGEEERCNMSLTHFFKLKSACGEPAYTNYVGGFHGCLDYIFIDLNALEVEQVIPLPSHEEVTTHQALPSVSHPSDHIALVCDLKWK
UniProt Q8IZL8: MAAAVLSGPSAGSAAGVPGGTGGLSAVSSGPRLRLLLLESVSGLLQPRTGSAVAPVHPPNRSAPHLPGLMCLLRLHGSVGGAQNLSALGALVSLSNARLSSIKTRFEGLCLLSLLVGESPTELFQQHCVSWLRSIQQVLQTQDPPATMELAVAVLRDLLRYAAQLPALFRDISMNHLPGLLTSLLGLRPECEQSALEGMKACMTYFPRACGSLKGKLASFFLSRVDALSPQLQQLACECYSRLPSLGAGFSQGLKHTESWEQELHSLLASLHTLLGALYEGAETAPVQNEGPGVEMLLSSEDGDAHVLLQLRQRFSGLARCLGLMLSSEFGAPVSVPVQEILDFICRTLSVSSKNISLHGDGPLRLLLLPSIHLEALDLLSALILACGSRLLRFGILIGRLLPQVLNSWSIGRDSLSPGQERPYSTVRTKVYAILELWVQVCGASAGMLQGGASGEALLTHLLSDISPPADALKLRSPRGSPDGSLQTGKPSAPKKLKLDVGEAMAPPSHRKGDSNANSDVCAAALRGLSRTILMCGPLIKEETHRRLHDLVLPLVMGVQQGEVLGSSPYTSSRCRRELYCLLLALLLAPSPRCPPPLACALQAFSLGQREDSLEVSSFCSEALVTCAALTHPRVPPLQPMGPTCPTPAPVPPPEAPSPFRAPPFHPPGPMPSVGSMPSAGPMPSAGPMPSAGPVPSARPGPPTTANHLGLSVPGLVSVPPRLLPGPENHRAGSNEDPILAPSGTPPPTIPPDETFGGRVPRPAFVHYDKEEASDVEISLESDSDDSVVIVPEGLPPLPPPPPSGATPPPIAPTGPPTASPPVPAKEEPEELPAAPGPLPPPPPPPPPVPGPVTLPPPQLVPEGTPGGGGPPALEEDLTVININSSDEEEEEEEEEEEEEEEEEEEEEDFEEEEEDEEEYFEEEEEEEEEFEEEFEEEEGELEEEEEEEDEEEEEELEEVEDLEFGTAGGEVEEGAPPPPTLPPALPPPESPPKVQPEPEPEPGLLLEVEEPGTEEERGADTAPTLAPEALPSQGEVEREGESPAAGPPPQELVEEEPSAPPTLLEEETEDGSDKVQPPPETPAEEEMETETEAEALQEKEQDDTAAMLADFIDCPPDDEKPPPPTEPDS
UniProt Q5EBL8: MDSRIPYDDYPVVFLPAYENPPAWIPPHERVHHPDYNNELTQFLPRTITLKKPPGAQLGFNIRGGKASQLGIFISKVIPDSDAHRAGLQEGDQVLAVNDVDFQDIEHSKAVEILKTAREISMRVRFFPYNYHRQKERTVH

Experiments:
Experiment in all cases: log2 fold change, soluble protein after heating vs DMSO (PISA); higher = thermal stabilisation; K562 lysate, 10 uM; active = over 0.2 and 3.5 SD of the protein, either way, in both replicates (recomputed)
erlotinib = compound: C#Cc1cccc(Nc2ncnc3cc(OCCOC)c(OCCOC)cc23)c1 [erlotinib]
Summary of the method: (§1)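 The values are log-two fold changes in thermal stability compared with solvent controls and come from duplicates. They were obtained by TMTpro 16plex LC-MS/MS, with channel sums equalised, on the supernatant after 21,000xg for 90 min. That supernatant came from crude K562 extract at 1 mg/mL protein treated with 10 μM compound for 30 min, heated for 3 min across 48°C-58°C, pooled and brought to 0.5% NP-40 at 4°C.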

[1] = compound: C/C(=N\NC(=O)C1=CC(=CC=C1)S(=O)(=O)N2CCOCC2)/C3=C(C=CC(=C3)Cl)O
Summary of the method: as §1

[2] = compound: C1=CC(=CC=C1C2=NC3=C(N2)C=C(C=C3)C(=O)N)OC4=CC=C(C=C4)Cl
Summary of the method: as §1

[3] = compound: C1=CC2=C(C=CC(=C2)/C=C\3/C(=O)NC(=NCC4=CC=CS4)S3)N=C1
Summary of the method: as §1

[4] = compound: C1=CC2=NC=CN=C2C=C1/C=C/3\C(=O)NC(=O)S3
Summary of the method: as §1

[5] = compound: C1=CC=C(C=C1)C2=NC(=C(N2)C3=CC=NC=C3)C4=CC(=C(C=C4)Cl)O
Summary of the method: as §1

[6] = compound: C1=CC=C2C(=C1)C3=NNC4=CC=CC(=C43)C2=O
Summary of the method: as §1

[7] = compound: C1CCN(C1)C(=O)NC2=CC=CC(=C2)NC3=NC=C(C(=N3)NCCC4=CN=CN4)Br
Summary of the method: as §1

[8] = compound: C1CN(CCC1(CC2=CC=C(C=C2)Cl)N)C3=NC=NC4=C3C=CN4
Summary of the method: as §1

IRAK-1-4 Inhibitor I = compound: C1COCCN1CCN2C3=CC=CC=C3N=C2NC(=O)C4=CC(=CC=C4)[N+](=O)[O-] [IRAK-1-4 Inhibitor I]
Summary of the method: as §1

ibrutinib = compound: C=CC(=O)N1CCC[C@@H](n2nc(-c3ccc(Oc4ccccc4)cc3)c3c(N)ncnc32)C1 [ibrutinib]
Summary of the method: as §1

[9] = compound: CC(=O)c1cnc2ccc(-c3cc(Cl)c(O)c(Cl)c3)nc2c1N[C@H]1CC[C@H](CN(C)C)CC1
Summary of the method: as §1

ralimetinib = compound: CC(C)(C)Cn1c(N)nc2ccc(-c3[nH]c(C(C)(C)C)nc3-c3ccc(F)cc3)nc21 [ralimetinib]
Summary of the method: as §1

[10] = compound: CC(C)(O)CC(=O)NCCn1ccc2ncnc(Nc3ccc(Oc4cccc(C(F)(F)F)c4)c(Cl)c3)c21
Summary of the method: as §1

[11] = compound: CC(C)C1=C2N=C(C=C(N2N=C1)NCC3=CC=CC=C3)NCCCCCCN
Summary of the method: as §1

[12] = compound: CC1=C(C(CC(=O)N1)C2=CC=C(C=C2)C(F)(F)F)C(=O)NC3=C(C=C4C(=C3)C=NN4)F
Summary of the method: as §1

[13] = compound: CC1=C(C2=C(C=C1)C(=O)C3=CC=CC=C3N2CCCN)C
Summary of the method: as §1

[14] = compound: CC1=C(C=C(C=C1)NC(=O)C2=CC(=CC=C2)C(C)(C)C#N)NC3=CC4=C(C=C3)N=CN(C4=O)C
Summary of the method: as §1

[15] = compound: CC1=C(C=C(C=C1)NC(=O)C2=CC(=CC=C2)N(C)C)NC(=O)C3=CC=C(C=C3)O
Summary of the method: as §1

[16] = compound: CC1=CC=C(C=C1)SC2=C3C=C(SC3=CN=C2)C(=O)N
Summary of the method: as §1

Measured: log2 fold change

PCGF5 (UniProt Q86SE9)
inactive: erlotinib 0.038 | [1] 0.172 | [2] -0.022 | [3] 0.257 | [4] -0.014 | [5] -0.036 | [6] -0.182 | [7] 0.011 | [8] -0.002 | IRAK-1-4 Inhibitor I -0.064 | ibrutinib 0.119 | [9] -0.019 | ralimetinib 0.076 | [10] -0.019 | [11] -0.064 | [12] -0.047 | [13] -0.016 | [14] -0.11 | [15] 0.051 | [16] 0.017

PBXIP1 (UniProt Q96AQ6)
inactive: erlotinib -0.025 | [1] 0.087 | [2] 0.028 | [3] 0.092 | [4] 0.021 | [5] -0.007 | [6] -0.069 | [7] -0.026 | [8] -0.011 | IRAK-1-4 Inhibitor I -0.014 | ibrutinib 0.054 | [9] -0.013 | ralimetinib 0.038 | [10] -0.076 | [11] 0.006 | [12] 0.011 | [13] -0.056 | [14] -0.023 | [15] -0.009 | [16] 0.001

PELO (UniProt Q9BRX2)
inactive: erlotinib 0 | [1] -0.047 | [2] -0.058 | [3] -0.014 | [4] -0.002 | [5] 0 | [6] -0.038 | [7] -0.021 | [8] -0.049 | IRAK-1-4 Inhibitor I 0 | ibrutinib 0.034 | [9] -0.004 | ralimetinib 0.04 | [10] -0.035 | [11] 0.005 | [12] -0.02 | [13] -0.012 | [14] -0.005 | [15] 0.001 | [16] 0.002

PES1 (UniProt O00541)
inactive: erlotinib 0 | [1] -0.071 | [2] -0.014 | [3] -0.044 | [4] -0.001 | [5] 0.001 | [6] -0.012 | [7] 0.025 | [8] -0.056 | IRAK-1-4 Inhibitor I 0.037 | ibrutinib 0.016 | [9] 0.017 | ralimetinib 0.031 | [10] -0.03 | [11] 0.006 | [12] 0.013 | [13] -0.052 | [14] 0.012 | [15] 0.003 | [16] 0.007

PDCD10 (UniProt Q9BUL8)
inactive: erlotinib -0.029 | [1] -0.001 | [2] -0.009 | [3] -0.049 | [4] -0.028 | [5] -0.007 | [6] 0.087 | [7] 0.035 | [8] -0.025 | IRAK-1-4 Inhibitor I -0.012 | ibrutinib 0.001 | [9] 0.062 | ralimetinib 0 | [10] -0.006 | [11] -0.008 | [12] -0.02 | [13] 0.016 | [14] 0.021 | [15] -0.02 | [16] -0.02

PCBD2 (UniProt Q9H0N5)
inactive: erlotinib -0.012 | [1] -0.033 | [2] 0.044 | [3] -0.022 | [4] 0.079 | [5] 0.005 | [6] -0.014 | [7] -0.018 | [8] -0.015 | IRAK-1-4 Inhibitor I -0.01 | ibrutinib 0.035 | [9] 0.02 | ralimetinib 0.051 | [10] -0.08 | [11] 0.033 | [12] 0.025 | [13] 0.022 | [14] 0.027 | [15] -0.007 | [16] -0.03

PBK (UniProt Q96KB5)
inactive: erlotinib 0.012 | [1] 0.026 | [2] -0.044 | [3] 0.014 | [4] -0.014 | [5] 0.008 | [6] -0.001 | [7] -0.007 | [8] -0.011 | IRAK-1-4 Inhibitor I -0.007 | ibrutinib 0.006 | [9] -0.007 | ralimetinib 0.005 | [10] -0.005 | [11] 0.029 | [12] -0.008 | [13] 0.015 | [14] 0.006 | [15] -0.013 | [16] 0.019

PDS5A (UniProt Q29RF7)
inactive: erlotinib 0.043 | [1] -0.015 | [2] -0.029 | [3] 0.052 | [4] 0.032 | [5] 0.012 | [6] -0.038 | [7] -0.005 | [8] 0.001 | IRAK-1-4 Inhibitor I -0.015 | ibrutinib 0 | [9] 0.013 | ralimetinib 0.008 | [10] -0.017 | [11] -0.029 | [12] 0.023 | [13] -0.038 | [14] 0.017 | [15] 0.031 | [16] 0.039

PARS2 (UniProt Q7L3T8)
inactive: erlotinib 0.005 | [1] -0.126 | [2] 0.011 | [3] -0.041 | [4] 0.048 | [5] 0.003 | [6] 0.051 | [7] 0.028 | [8] 0.018 | IRAK-1-4 Inhibitor I -0.011 | ibrutinib -0.004 | [9] 0.006 | ralimetinib 0.03 | [10] -0.017 | [11] -0.029 | [12] 0.015 | [13] -0.051 | [14] 0.004 | [15] 0.019 | [16] 0.013

PGAM4 (UniProt Q8N0Y7)
inactive: erlotinib 0.02 | [1] -0.023 | [2] 0.031 | [3] -0.032 | [4] 0.007 | [5] -0.007 | [6] 0 | [7] 0.008 | [8] 0 | IRAK-1-4 Inhibitor I 0.04 | ibrutinib -0.029 | [9] 0.005 | ralimetinib 0.001 | [10] -0.014 | [11] 0.013 | [12] -0.03 | [13] 0.004 | [14] 0.016 | [15] -0.01 | [16] 0.012

PAXIP1 (UniProt Q6ZW49)
inactive: erlotinib -0.049 | [1] -0.013 | [2] -0.069 | [3] 0.046 | [4] -0.09 | [5] 0.017 | [6] 0.029 | [7] -0.003 | [8] 0.017 | IRAK-1-4 Inhibitor I -0.009 | ibrutinib 0.008 | [9] 0.051 | ralimetinib 0.029 | [10] 0.007 | [11] 0.009 | [12] 0.074 | [13] -0.005 | [14] -0.013 | [15] 0.007 | [16] 0.081

PDHA1 isoform 4 (UniProt P08559)
inactive: erlotinib 0.027 | [1] 0.021 | [2] 0.003 | [3] 0.016 | [4] 0.001 | [5] 0.015 | [6] -0.027 | [7] -0.01 | [8] -0.002 | IRAK-1-4 Inhibitor I -0.009 | ibrutinib 0.024 | [9] -0.009 | ralimetinib 0.017 | [10] -0.006 | [11] 0.046 | [12] 0.016 | [13] -0.077 | [14] 0.024 | [15] -0.003 | [16] 0.016

PDE12 (UniProt Q6L8Q7)
inactive: erlotinib 0.034 | [1] 0.029 | [2] -0.018 | [3] 0.003 | [4] 0.003 | [5] 0.029 | [6] -0.029 | [7] -0.04 | [8] 0.01 | IRAK-1-4 Inhibitor I 0.034 | ibrutinib -0.007 | [9] -0.001 | ralimetinib 0 | [10] 0.02 | [11] 0 | [12] -0.022 | [13] 0.011 | [14] 0.002 | [15] -0.05 | [16] -0.02

PFN1 (UniProt P07737)
inactive: erlotinib -0.022 | [1] -0.017 | [2] 0.01 | [3] 0.019 | [4] -0.007 | [5] -0.006 | [6] 0.015 | [7] -0.002 | [8] 0.01 | IRAK-1-4 Inhibitor I -0.007 | ibrutinib -0.018 | [9] -0.007 | ralimetinib 0.009 | [10] 0.013 | [11] -0.022 | [12] -0.017 | [13] 0.009 | [14] 0.007 | [15] 0 | [16] 0.002

PELP1 (UniProt Q8IZL8)
inactive: erlotinib 0.025 | [1] 0.165 | [2] -0.019 | [3] -0.101 | [4] 0.014 | [5] -0.022 | [6] -0.046 | [7] 0.06 | [8] -0.044 | IRAK-1-4 Inhibitor I 0.006 | ibrutinib 0.016 | [9] 0.027 | ralimetinib 0.039 | [10] 0.004 | [11] -0.099 | [12] 0.041 | [13] -0.046 | [14] 0.016 | [15] 0.029 | [16] -0.013

PDZD11 isoform 2 (UniProt Q5EBL8)
inactive: erlotinib -0.005 | [1] 0.007 | [2] 0.004 | [3] -0.024 | [4] -0.03 | [5] 0.045 | [6] 0.025 | [7] -0.034 | [8] 0.049 | IRAK-1-4 Inhibitor I -0.012 | ibrutinib 0.083 | [9] -0.011 | ralimetinib -0.009 | [10] -0.044 | [11] -0.018 | [12] -0.044 | [13] 0.016 | [14] 0.005 | [15] -0.022 | [16] 0.003

Reprinted at random: 2 entries already listed
PELP1 (UniProt Q8IZL8)
inactive: erlotinib 0.025 | [1] 0.165 | [2] -0.019 | [3] -0.101 | [4] 0.014 | [5] -0.022 | [6] -0.046 | [7] 0.06 | [8] -0.044 | IRAK-1-4 Inhibitor I 0.006 | ibrutinib 0.016 | [9] 0.027 | ralimetinib 0.039 | [10] 0.004 | [11] -0.099 | [12] 0.041 | [13] -0.046 | [14] 0.016 | [15] 0.029 | [16] -0.013

PES1 (UniProt O00541)
inactive: erlotinib 0 | [1] -0.071 | [2] -0.014 | [3] -0.044 | [4] -0.001 | [5] 0.001 | [6] -0.012 | [7] 0.025 | [8] -0.056 | IRAK-1-4 Inhibitor I 0.037 | ibrutinib 0.016 | [9] 0.017 | ralimetinib 0.031 | [10] -0.03 | [11] 0.006 | [12] 0.013 | [13] -0.052 | [14] 0.012 | [15] 0.003 | [16] 0.007
